PubChem BioAssay AID602196, INSERM, 2012
Aim: 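Knock-downs that protect lung cancer cells from cisplatin or sensitise them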. Cell system: human A549 lung cancer cells. Reagent: siRNA pair against human genes. Duration: 48 h transfection before cisplatin; time from cisplatin to read-out not stated. Challenge: cisplatin at a dose killing half of control-siRNA cells; exact dose and duration not given. Detection: 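Shift in cisplatin death relative to control siRNA, from -50 (all cells die) to +50 (no cells die); siRNAs harmful on their own scored 0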. Scale: two-siRNA summed score (-2 to +2): higher = both siRNAs protect from cisplatin killing; -2 means both sensitise; mean protection from cisplatin (shift in death): higher = protection from cisplatin killing. Call rule: 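Each siRNA scores 0 if harmful alone by LDH or WST-1, otherwise +1 if it reduces and -1 if it increases cisplatin killing; a gene is active when both siRNAs agree (sum +2 or -2)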. Calls: active = both siRNAs shift cisplatin killing the same way; inactive = no consistent shift, or siRNA harmful alone.
Here is one part, drawn at random, of about 23,000 reagents. Of all reagents, 455 (2%) are marked active. 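Active includes both protection and sensitisation; some change values fall well beyond the stated -50 to +50 range.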 Entries without a mark were called inactive. Not all columns of the deposit are shown. Not given: the amount of reagent.

Knock-down of NRIP3 resulted in: two-siRNA summed score (-2 to +2) = 0; mean protection from cisplatin (shift in death) (%) = -3.4. Against MMEL1, the entry reads two-siRNA summed score (-2 to +2) = 0; mean protection from cisplatin (shift in death) (%) = -4.2. With knock-down of UBASH3B, the record shows two-siRNA summed score (-2 to +2) = 0; mean protection from cisplatin (shift in death) (%) = 10.7. LOC440675 gave two-siRNA summed score (-2 to +2) = 1; mean protection from cisplatin (shift in death) (%) = 21.5. With knock-down of ZNF354B, the screen gave two-siRNA summed score (-2 to +2) = 0; mean protection from cisplatin (shift in death) (%) = -1.9. Against MRGPRX4, the entry reads two-siRNA summed score (-2 to +2) = 0; mean protection from cisplatin (shift in death) (%) = -2.6.

Against LINGO2 the deposit lists two-siRNA summed score (-2 to +2) = 0; mean protection from cisplatin (shift in death) (%) = -12.3. NUDT6 gave two-siRNA summed score (-2 to +2) = 0; mean protection from cisplatin (shift in death) (%) = 2.7. After knock-down of LOC441221, the record shows two-siRNA summed score (-2 to +2) = 0; mean protection from cisplatin (shift in death) (%) = 0.7. Depletion of LOC441174 came out at: two-siRNA summed score (-2 to +2) = 0; mean protection from cisplatin (shift in death) (%) = 1.5. Against AMH, the values are two-siRNA summed score (-2 to +2) = 0; mean protection from cisplatin (shift in death) (%) = -3.7. Against NAXE, the entry reads two-siRNA summed score (-2 to +2) = 0; mean protection from cisplatin (shift in death) (%) = -1.1.

With knock-down of LOC440145, the record shows two-siRNA summed score (-2 to +2) = 0; mean protection from cisplatin (shift in death) (%) = 9.1.

3 consecutive reagents already listed, for reference:
LOC441174 | two-siRNA summed score (-2 to +2): 0; mean protection from cisplatin (shift in death) (%): 1.5
AMH | two-siRNA summed score (-2 to +2): 0; mean protection from cisplatin (shift in death) (%): -3.7
NAXE | two-siRNA summed score (-2 to +2): 0; mean protection from cisplatin (shift in death) (%): -1.1

More records:
After knock-down of SSX3 the results were two-siRNA summed score (-2 to +2) = 0; mean protection from cisplatin (shift in death) (%) = 7.1. Depletion of CA12 resulted in: two-siRNA summed score (-2 to +2) = 0; mean protection from cisplatin (shift in death) (%) = 2.3. FAM124A showed two-siRNA summed score (-2 to +2) = 0; mean protection from cisplatin (shift in death) (%) = 0.4. With knock-down of ZNF892, the screen gave two-siRNA summed score (-2 to +2) = 0; mean protection from cisplatin (shift in death) (%) = -1.6. Depletion of SCGB1D2 gave: two-siRNA summed score (-2 to +2) = 0; mean protection from cisplatin (shift in death) (%) = 5.8. Against FMN2 the deposit lists two-siRNA summed score (-2 to +2) = 1; mean protection from cisplatin (shift in death) (%) = 10.

For LINC00907 the deposit lists two-siRNA summed score (-2 to +2) = 1; mean protection from cisplatin (shift in death) (%) = 7.9. Knock-down of HOXD12 came out at: two-siRNA summed score (-2 to +2) = 0; mean protection from cisplatin (shift in death) (%) = -1.3. B2M showed two-siRNA summed score (-2 to +2) = 1; mean protection from cisplatin (shift in death) (%) = 12.6. For LOC440334, the values are two-siRNA summed score (-2 to +2) = 2 (active); mean protection from cisplatin (shift in death) (%) = 17.8. CNGA1 gave two-siRNA summed score (-2 to +2) = 0; mean protection from cisplatin (shift in death) (%) = -0.4. Knock-down of ROCK2 came out at: two-siRNA summed score (-2 to +2) = 0; mean protection from cisplatin (shift in death) (%) = 6.2.

PART1 scored two-siRNA summed score (-2 to +2) = 0; mean protection from cisplatin (shift in death) (%) = 2.8. Against LRRC57 the deposit lists two-siRNA summed score (-2 to +2) = -1; mean protection from cisplatin (shift in death) (%) = -9.6. For WT1 the deposit lists two-siRNA summed score (-2 to +2) = 0; mean protection from cisplatin (shift in death) (%) = -11.4. Against SPCS3, the values are two-siRNA summed score (-2 to +2) = 0; mean protection from cisplatin (shift in death) (%) = 5. Silencing of AMY1A resulted in: two-siRNA summed score (-2 to +2) = 1; mean protection from cisplatin (shift in death) (%) = 21.8. Silencing of LOC400865 resulted in: two-siRNA summed score (-2 to +2) = 0; mean protection from cisplatin (shift in death) (%) = 1.8.
